The data set deals with DDX3X (UniProt O00571). The data set can be described thus: ELISA. As to conditions: minimal binding to the mutated G4; ELISA performed as in Zyner et al. (ref 43); commercial protein; protein details: FLAG; label: 5' biotin.

The chains behind the UniProt entries cited, without tags or fusion partners. Where a name states a change or a piece, a line headed by the entry shows the natural chain unless it says otherwise.
UniProt O00571: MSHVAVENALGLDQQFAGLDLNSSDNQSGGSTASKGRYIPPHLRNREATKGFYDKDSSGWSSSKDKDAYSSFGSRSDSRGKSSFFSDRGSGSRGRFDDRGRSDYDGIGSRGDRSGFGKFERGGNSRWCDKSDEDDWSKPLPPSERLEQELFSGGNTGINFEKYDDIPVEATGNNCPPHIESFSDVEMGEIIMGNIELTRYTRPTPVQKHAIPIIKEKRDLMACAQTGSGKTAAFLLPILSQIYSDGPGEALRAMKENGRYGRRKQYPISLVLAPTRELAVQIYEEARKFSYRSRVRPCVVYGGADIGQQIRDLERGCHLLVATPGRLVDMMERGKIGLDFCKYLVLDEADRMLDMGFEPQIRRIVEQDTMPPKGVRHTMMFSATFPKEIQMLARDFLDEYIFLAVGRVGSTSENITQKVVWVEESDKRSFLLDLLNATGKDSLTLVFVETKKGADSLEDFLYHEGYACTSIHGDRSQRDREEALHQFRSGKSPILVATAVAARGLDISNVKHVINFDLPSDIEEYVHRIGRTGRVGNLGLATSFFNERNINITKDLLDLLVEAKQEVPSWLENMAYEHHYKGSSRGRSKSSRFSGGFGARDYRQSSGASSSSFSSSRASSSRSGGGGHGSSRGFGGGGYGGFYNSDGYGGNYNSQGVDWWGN

Construct, isoform or probe ends are uncertain for at least one entry. Weaker means in comparison with the reference protein, sequence or condition of that experiment.

Turning to UGUAGAAAGAGCAGAUCUAGAUGC [NRAS mG4], the binding result is “binds more weakly”.

Source of the values: publication PMC8611094.
